Experimental data: article PMC11167823
Results are given in words; binding and its absence hold for the method and conditions named. In cells and extracts the contact can be indirect. Some results given as binding are weak or reduced against the parent protein; the word gives no strength.

What was measured:
[1] = molecular target: T1, Serum response factor (human (endogenous in primary EcESCs)) (UniProt P11831); assay: co-IP; endogenous proteins; whole-cell lysate of primary human EcESCs treated with or without TGF-β1 (12 ng/ml); immunoprecipitation with SRF antibody, Protein A/G PLUS-Agarose, western blot for KAT14; isotype IgG as negative control
T1 sequence: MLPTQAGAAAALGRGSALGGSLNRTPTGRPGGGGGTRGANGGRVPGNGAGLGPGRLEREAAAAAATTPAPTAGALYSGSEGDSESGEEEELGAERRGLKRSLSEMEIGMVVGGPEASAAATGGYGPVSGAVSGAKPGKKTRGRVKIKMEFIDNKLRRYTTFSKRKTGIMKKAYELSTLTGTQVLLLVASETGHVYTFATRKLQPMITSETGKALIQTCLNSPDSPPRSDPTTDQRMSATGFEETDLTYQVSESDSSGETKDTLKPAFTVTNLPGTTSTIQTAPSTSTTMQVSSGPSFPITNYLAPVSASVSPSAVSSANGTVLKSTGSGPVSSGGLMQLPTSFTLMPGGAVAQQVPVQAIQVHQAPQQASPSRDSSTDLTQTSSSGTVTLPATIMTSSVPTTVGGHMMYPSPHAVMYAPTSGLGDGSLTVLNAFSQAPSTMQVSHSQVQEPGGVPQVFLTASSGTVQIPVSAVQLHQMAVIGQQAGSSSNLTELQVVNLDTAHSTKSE

[2] = molecular target: T1, Serum response factor (human (endogenous in primary EcESCs)); assay: co-IP; endogenous proteins; immunoprecipitation following nuclear-cytoplasmic separation of TGF-β1-stimulated primary human EcESCs

- binding [1]: binds
- binding [2]: binds
B1: Lysine acetyltransferase 14 (protein, UniProt Q9H8E8 1-782)
chain: MDSSIHLSSLISRHDDEATRTSTSEGLEEGEVEGETLLIVESEDQASVDLSHDQSGDSLNSDEGDVSWMEEQLSYFCDKCQKWIPASQLREQLSYLKGDNFFRFTCSDCSADGKEQYERLKLTWQQVVMLAMYNLSLEGSGRQGYFRWKEDICAFIEKHWTFLLGNRKKTSTWWSTVAGCLSVGSPMYFRSGAQEFGEPGWWKLVHNKPPTMKPEGEKLSASTLKIKAASKPTLDPIITVEGLRKRASRNPVESAMELKEKRSRTQEAKDIRRAQKEAAGFLDRSTSSTPVKFISRGRRPDVILEKGEVIDFSSLSSSDRTPLTSPSPSPSLDFSAPGTPASHSATPSLLSEADLIPDVMPPQALFHDDDEMEGDGVIDPGMEYVPPPAGSVASGPVVGVRKKVRGPEQIKQEVESEEEKPDRMDIDSEDTDSNTSLQTRAREKRKPQLEKDTKPKEPRYTPVSIYEEKLLLKRLEACPGAVAMTPEARRLKRKLIVRQAKRDRGLPLFDLDQVVNAALLLVDGIYGAKEGGISRLPAGQATYRTTCQDFRILDRYQTSLPSRKGFRHQTTKFLYRLVGSEDMAVDQSIVSPYTSRILKPYIRRDYETKPPKLQLLSQIRSHLHRSDPHWTPEPDAPLDYCYVRPNHIPTINSMCQEFFWPGIDLSECLQYPDFSVVVLYKKVIIAFGFMVPDVKYNEAYISFLFVHPEWRRAGIATFMIYHLIQTCMGKDVTLHVSASNPAMLLYQKFGFKTEEYVLDFYDKYYPLESTECKHAFFLRLRR
